Test results taken from paper PMC5795388.
No constants are given. Whether binding was seen depends on the method and setting. Binding seen in cells or lysates may run through a third protein. Some entries that bind do so weakly or less than the wild type. Values belong to the binder of their own block, whether it stands above or below them.

The chains behind the UniProt entries cited, without tags or fusion partners. Where a name states a change or a piece, a line headed by the entry shows the natural chain unless it says otherwise.
UniProt Q8BMS1: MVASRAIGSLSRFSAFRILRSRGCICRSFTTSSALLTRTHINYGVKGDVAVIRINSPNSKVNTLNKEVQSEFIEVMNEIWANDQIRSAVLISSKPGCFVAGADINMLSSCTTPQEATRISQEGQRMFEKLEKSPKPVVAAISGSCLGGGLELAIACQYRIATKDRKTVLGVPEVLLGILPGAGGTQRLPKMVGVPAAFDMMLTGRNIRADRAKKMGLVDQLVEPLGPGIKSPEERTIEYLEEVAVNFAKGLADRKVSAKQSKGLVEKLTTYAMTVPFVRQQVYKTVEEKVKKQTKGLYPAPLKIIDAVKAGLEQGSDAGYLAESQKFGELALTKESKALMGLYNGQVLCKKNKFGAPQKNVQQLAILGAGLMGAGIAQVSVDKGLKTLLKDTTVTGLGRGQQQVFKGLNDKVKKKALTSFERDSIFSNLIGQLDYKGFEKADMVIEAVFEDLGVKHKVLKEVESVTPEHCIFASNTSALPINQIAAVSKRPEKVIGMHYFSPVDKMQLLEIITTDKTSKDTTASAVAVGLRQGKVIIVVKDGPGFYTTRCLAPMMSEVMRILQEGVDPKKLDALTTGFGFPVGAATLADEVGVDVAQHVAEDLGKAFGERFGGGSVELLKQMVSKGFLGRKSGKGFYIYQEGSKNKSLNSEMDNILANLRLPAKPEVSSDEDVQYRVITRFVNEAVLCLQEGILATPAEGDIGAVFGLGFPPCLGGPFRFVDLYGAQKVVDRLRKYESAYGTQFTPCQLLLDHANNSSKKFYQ
UniProt Q99JY0: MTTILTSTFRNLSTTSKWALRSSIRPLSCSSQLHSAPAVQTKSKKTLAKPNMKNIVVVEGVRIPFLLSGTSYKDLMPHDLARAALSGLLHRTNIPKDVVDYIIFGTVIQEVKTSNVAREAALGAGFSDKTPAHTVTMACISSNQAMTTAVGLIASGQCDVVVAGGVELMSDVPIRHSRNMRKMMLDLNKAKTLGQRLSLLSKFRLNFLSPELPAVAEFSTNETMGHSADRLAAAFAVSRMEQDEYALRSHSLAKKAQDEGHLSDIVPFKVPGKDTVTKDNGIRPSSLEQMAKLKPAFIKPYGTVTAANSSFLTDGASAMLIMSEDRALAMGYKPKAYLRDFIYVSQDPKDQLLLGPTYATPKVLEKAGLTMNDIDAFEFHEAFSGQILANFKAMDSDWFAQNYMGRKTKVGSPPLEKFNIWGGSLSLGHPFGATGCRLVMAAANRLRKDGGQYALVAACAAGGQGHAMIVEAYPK

What was measured:
Assay in all cases: cross-linking; XL-MS of intact (native) mouse heart mitochondria: 0.5 mM DSSO in HEENK buffer (10 mM HEPES, 1 mM EDTA, 1 mM EGTA, 10 mM NaCl, 150 mM KCl, pH 7.1), 20 °C, 1 h; Lys-Lys cross-links identified with XlinkX v2.0 at 2% FDR; two biological replicates
[1] = target: T1, mitochondrial 3-ketoacyl-CoA thiolase (mouse (endogenous in heart mitochondria)) (UniProt Q8BWT1)
T1 sequence: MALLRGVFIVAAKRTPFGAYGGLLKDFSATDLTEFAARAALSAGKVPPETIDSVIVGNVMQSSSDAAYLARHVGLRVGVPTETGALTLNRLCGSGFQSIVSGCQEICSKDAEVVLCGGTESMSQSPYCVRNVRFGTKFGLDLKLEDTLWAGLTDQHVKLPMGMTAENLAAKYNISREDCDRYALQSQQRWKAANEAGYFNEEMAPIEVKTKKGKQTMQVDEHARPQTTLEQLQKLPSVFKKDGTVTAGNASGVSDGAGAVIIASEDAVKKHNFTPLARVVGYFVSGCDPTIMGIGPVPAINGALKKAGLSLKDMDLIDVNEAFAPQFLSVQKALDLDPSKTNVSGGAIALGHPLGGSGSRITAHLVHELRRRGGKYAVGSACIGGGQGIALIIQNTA

[2] = target: T2, Coq6 (mouse (endogenous in heart mitochondria)) (UniProt Q8R1S0)
T2 sequence: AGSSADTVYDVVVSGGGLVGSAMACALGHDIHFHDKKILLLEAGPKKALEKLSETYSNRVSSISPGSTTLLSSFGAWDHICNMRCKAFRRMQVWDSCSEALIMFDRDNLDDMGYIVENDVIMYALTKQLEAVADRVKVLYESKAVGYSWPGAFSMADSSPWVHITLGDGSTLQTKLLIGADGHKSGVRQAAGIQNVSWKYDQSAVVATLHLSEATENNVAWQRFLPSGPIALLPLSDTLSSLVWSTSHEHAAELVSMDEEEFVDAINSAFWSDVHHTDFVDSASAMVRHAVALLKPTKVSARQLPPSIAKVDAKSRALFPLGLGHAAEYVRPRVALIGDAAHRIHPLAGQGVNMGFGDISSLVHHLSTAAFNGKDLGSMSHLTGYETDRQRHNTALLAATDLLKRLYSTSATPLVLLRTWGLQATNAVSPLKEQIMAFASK

[3] = target: T3, mitochondrial Acetyl-CoA acetyltransferase (Acat1) (mouse (endogenous in heart mitochondria)) (UniProt Q8QZT1)
T3 sequence: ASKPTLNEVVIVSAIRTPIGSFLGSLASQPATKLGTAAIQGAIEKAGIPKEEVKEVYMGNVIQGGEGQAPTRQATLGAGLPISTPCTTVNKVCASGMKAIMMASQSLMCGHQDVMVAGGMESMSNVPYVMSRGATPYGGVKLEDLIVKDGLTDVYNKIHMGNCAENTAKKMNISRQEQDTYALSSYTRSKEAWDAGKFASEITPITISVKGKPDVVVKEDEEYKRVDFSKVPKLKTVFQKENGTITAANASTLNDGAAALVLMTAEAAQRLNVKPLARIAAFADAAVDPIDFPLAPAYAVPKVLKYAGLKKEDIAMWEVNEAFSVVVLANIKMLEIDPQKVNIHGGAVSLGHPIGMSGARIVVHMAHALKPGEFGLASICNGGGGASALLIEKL

[4] = target: T4, electron transferring flavoprotein complex (mouse (endogenous in heart mitochondria)) (UniProt Q99LC5+Q9DCW4)
T4 sequence 1: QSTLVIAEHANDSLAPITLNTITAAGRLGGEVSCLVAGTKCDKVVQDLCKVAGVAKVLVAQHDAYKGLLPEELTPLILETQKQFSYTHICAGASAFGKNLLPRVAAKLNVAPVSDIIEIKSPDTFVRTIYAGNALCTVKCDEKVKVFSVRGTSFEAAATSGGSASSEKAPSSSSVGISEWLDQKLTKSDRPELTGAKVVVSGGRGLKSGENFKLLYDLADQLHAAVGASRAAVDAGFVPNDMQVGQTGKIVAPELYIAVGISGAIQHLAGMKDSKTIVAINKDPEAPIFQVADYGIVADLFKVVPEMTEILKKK
T4 sequence 2: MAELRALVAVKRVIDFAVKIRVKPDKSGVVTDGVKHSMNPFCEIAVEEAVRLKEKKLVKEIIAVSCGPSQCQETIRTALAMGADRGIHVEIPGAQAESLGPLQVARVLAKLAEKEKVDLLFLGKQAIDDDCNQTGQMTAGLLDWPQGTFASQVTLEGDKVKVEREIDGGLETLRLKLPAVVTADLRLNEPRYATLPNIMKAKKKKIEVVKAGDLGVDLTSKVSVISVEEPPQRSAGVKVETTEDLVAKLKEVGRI

[5] = target: trifunctional enzyme complex (mouse (endogenous in heart mitochondria)) (UniProt Q8BMS1+Q99JY0)

B2: Coq3 (protein, UniProt Q8BMS4 87-370)
chain: STSQTTVDSREVKNFQALAHTWWDEYGKFAPLHSMNDLRVPFIRDNLLKTSASHHPGKPLSGMKILDVGCGGGLLTEPLGRLGASVVGIDPVAENIKIAQHHKSFDPVLDKRIQYKVCSLEEAVDESAECFDAVVASEVVEHVSHLEMFIQCCYQVLKPGGSLFITTVNKTQLSYALGIVFAEQIAGIVPKGTHTWEKFVSPEKLESILEPNGLSVETVAGLVYNPFSGYWHWSENTSLNYAAHAVRSRAQEHQEPAESALKGETGALHANTSGSPSVREEQRT
binding [2]: binds

B4: Lyrm5 (protein, UniProt Q91V16 1-86)
chain: MANSLRGEVLTLYKNLLYLGRDYPKGADYFKRRLKNVFLKNKDVEDPEKIKELIARGEFVMKELEALYFLRKYRAMKQRYYSDTKV
binding [4]: binds

B5: Junb (protein, UniProt P09450 1-344)
chain: MCTKMEQPFYHDDSYAAAGYGRSPGSLSLHDYKLLKPTLALNLADPYRGLKGPGARGPGPEGSGAGSYFSGQGSDTGASLKLASTELERLIVPNSNGVITTTPTPPGQYFYPRGGGSGGGTGGGVTEEQEGFADGFVKALDDLHKMNHVTPPNVSLGASGGPQAGPGGVYAGPEPPPVYTNLSSYSPASAPSGGSGTAVGTGSSYPTATISYLPHAPPFAGGHPAQLGLSRGASAFKEEPQTVPEARSRDATPPVSPINMEDQERIKVERKRLRNRLAATKCRKRKLERIARLEDKVKTLKAENAGLSSAAGLLREQVAQLKQKVMTHVSNGCQLLLGVKGHAF
binding [5]: binds

The remaining lines, values ahead:

binding [1]: binds
B1: Mum1 (protein, UniProt Q6DID5 1-682)
chain: MTDAKYVLCRWGKRLWPAKVLARTETSAKNKKKKEFFLDVQILSLKEKIQVKSSAVEALQKSHIENIAAFLASQNEVPATPLEELTYRRSLRVALDVLNERTSLSPESHPIEDGITLSQKEKTDADVASQVSSAPSPSLLGEDGQAVVAQCASKRRSEYSSKSLLPSSALEDHLRCQVGPKTGLSESGAGDKSQDDSGLQLDHGQESTTKKRQRNLGEKPTRRRRSESGLSKGESVLKSQGQASSCVALASPRPPSQTRDEEPCAGVKGCDWVKSSGNIRPLSASERSRGCPTKRPRLDGGQNPPTRQLGTRTVGAAPCPRSCSGEVTMLCSAGAGDKPEEDPVSSEESTGFKSTHSLLEEEEEEEEEPPRILLYHEPRSFEVGMLVWLKYQKYPFWPAVVKSVRRRDKKASVLFIEGNMNPKGRGITVSLRRLKHFDCKEKHALLDRAKEDFAQAIGWCVSLITDYRVRLGCGSFAGSFLEYYAADISYPVRKSIQQDVLGTRFPQLGKGDPEEPVGDSQLGQWRPCRKVLPDRSRAARDRANQKLVEYIVKAKGAESHLRAILHSRKPSRWLKTFLSSSQCVTCMETYLEDEAQLDEVVEYLQGVCRDMDGQVPERGSGDRIRFILDVLLPEAIICAISAVEAVDYKTAEQKYIRGPTLSYREKEIFDNELLEERNRRRR

binding [3]: binds
B3: Stau1 (protein, UniProt Q9Z108 1-487)
chain: MYKPVDPHSRMQSTYSYGMRGGAYPPRYFYPFPVPPLLYQVELSVGGQQFNGKGKMRPPVKHDAPARALRTLQSEPLPERLEVNGREAEEENLNKSEISQVFEIALKRNLPVNFEVARESGPPHMKNFVTRVSVGEFVGEGEGKSKKISKKNAARAVLEQLRRLPPLPAVERVKPRIKKKSQPTCKTAPDYGQGMNPISRLAQIQQAKKEKEPEYMLLTERGLPRRREFVMQVKVGHHTAEGVGTNKKVAKRNAAENMLEILGFKVPQAQPAKPALKSEEKTPVKKPGDGRKVTFFEPSPGDENGTSNKDEEFRMPYLSHQQLPAGILPMVPEVAQAVGVSQGHHTKDFTRAAPNPAKATVTAMIARELLYGGTSPTAETILKSNISSGHVPHGPRTRPSEQLYYLSRAQGFQVEYKDFPKNNKNECVSLINCSSQPPLVSHGIGKDVESCHDMAALNILKLLSELDQQSTEMPRTGNGPVSACGRC
